# Assay results taken from paper PMC7862700.
# Only a part is listed here, and it is no random draw. At the low end of the ranking the order means little.
# Experiments:
# Assay in all cases: DAPPL (digital affinity profiling via proximity ligation, sequencing)
# Settings in all cases: 10 mM Tris-HCl pH 7.5, 50 mM NaCl, 1 mM DTT, 4% glycerol, room temperature, 30 min; GST-TFs on glutathione beads, 16-mer random dsDNA library, 0.1% …; high values mean tight binding; double strand, one strand shown; scale: fold enrichment (6-mer frequency, TF over GST control)
# ELK1 = molecular target: T1, ELK1 (UniProt P19419)
# T1 sequence: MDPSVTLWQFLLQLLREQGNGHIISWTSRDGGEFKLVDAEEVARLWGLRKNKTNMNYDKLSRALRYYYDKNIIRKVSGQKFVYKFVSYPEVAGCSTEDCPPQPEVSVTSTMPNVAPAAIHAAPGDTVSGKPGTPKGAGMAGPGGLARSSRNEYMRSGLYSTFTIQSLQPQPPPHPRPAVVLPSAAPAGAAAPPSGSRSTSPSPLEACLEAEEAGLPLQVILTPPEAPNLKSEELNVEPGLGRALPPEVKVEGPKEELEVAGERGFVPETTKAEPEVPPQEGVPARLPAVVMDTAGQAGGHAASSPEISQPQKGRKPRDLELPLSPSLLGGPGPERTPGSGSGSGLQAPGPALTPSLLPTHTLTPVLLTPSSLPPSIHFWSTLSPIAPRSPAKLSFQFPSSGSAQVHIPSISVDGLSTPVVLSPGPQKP
# ELK3 = molecular target: T2, ELK3 (UniProt P41970)
# T2 sequence: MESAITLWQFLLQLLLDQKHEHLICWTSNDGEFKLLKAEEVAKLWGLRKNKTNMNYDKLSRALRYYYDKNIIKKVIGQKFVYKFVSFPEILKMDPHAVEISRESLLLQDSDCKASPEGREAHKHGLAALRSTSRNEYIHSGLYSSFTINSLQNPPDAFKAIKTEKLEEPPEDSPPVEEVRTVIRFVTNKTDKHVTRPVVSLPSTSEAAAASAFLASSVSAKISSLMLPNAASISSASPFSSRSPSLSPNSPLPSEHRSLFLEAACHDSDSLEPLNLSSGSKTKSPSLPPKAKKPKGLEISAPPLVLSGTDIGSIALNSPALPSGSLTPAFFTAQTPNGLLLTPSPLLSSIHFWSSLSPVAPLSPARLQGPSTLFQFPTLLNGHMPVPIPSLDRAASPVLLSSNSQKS
# SPIC = molecular target: T3, SPIC (UniProt Q8N5J4)
# T3 sequence: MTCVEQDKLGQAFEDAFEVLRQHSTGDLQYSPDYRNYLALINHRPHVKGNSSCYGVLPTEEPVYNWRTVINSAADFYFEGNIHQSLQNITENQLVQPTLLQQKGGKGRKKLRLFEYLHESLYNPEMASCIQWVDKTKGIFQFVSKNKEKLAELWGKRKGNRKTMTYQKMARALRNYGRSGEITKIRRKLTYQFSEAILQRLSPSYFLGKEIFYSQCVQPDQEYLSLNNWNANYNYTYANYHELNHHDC
# ETS2 = molecular target: T4, ETS2 (UniProt P15036)
# T4 sequence: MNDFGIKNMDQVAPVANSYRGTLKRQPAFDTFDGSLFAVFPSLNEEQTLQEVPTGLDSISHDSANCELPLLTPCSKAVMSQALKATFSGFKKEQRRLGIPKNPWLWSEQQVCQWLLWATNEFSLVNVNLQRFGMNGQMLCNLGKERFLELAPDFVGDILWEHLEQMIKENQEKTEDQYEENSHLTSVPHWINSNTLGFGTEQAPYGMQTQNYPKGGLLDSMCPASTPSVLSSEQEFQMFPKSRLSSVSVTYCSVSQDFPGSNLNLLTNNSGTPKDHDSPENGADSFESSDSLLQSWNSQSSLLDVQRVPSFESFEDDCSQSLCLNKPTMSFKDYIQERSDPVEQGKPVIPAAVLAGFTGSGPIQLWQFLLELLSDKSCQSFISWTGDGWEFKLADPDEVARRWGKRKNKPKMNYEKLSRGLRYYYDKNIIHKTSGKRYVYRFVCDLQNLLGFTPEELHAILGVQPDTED
# ETV3 = molecular target: T5, ETV3 (UniProt P41162-2)
# T5 sequence: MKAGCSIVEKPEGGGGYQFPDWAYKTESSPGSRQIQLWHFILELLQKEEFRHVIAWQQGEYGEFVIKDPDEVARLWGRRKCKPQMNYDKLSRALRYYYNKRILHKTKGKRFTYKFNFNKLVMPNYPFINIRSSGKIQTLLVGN
Sequence,binding signal (ELK1),binding signal (ELK3),binding signal (SPIC),binding signal (ETS2),binding signal (ETV3)
GGAGAA,0.305,0.363,0.378,0.32,0.334
TACCAG,0.886,0.869,0.843,0.845,0.791
AAACGT,0.996,,0.939,0.904,0.935
CAGCCG,0.737,0.72,0.676,0.649,0.74
GATTGG,0.886,,0.971,0.836,0.745
CGAGCG,0.912,,0.998,0.918,0.961
TGAGCG,0.646,0.642,0.571,0.621,0.618
CAGCAA,0.997,,0.813,0.938,0.901
AAGAGT,0.947,0.821,0.686,0.951,0.852
GAGTGC,0.728,0.754,0.684,0.658,0.683
GCATAT,0.956,,0.785,0.918,0.939
AGCGAG,0.553,0.611,0.487,0.654,0.622
GTACGT,0.865,0.955,0.95,0.877,0.828
TAGCCG,0.857,0.809,0.86,0.873,0.872
GCGCTA,0.977,,0.991,0.985,0.917
GACCCT,0.889,0.988,0.888,0.836,0.903
CAACAG,0.914,,0.744,0.838,
ATCGGG,0.472,0.5,0.482,0.469,0.494
GCATGA,0.782,0.871,0.811,0.835,0.828
TGAGTG,0.446,0.463,0.548,0.474,0.495
GGGATG,0.914,0.932,0.905,0.95,0.866

# As a working copy, part of the list above:
Sequence,binding signal (ELK1),binding signal (ELK3),binding signal (SPIC),binding signal (ETS2),binding signal (ETV3)
GAGTGC,0.728,0.754,0.684,0.658,0.683
GCATAT,0.956,,0.785,0.918,0.939
